Literature values, collected in patent US4546076A, “Enzymatic process for the determination of beta-lactam antibiotics” (U C B Societe Anonyme, priority 1982, dated 1985).

System: soluble exocellular D-alanyl-D-alanine-carboxypeptidase (enzyme R 39)
Settings: about 20 μl milk samples, 3 picomols of soluble enzyme R 39, less than one hour; cited from earlier work

SMILES: CC1(C)S[C@@H]2[C@H](NC(=O)Cc3ccccc3)C(=O)N2[C@H]1C(=O)O [penicillin G, benzylpenicillin]
- concentration determined qualitatively by the visual method: more than 0.09 I.U./ml
- lowest concentration determined quantitatively (spectrophotometer): 0.02 I.U./ml
